The other results are listed elsewhere or left out.
How the values were obtained:
Experiment in all cases: log2 fold change, soluble protein after heating vs DMSO (PISA); higher = thermal stabilisation; K562 lysate, 10 uM; active = over 0.2 and 3.5 SD of the protein, either way, in both replicates (recomputed)
[1] = compound: CN1CC[C@H](c2c(O)cc(O)c3c(=O)cc(-c4ccccc4Cl)oc23)[C@H](O)C1 [alvocidib]
How it was run: (§1)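 Following dounce homogenisation of K562 pellets in PBS pH 7.4 with 1 mM MgCl2, crude extract at 1 mg/mL protein was incubated for 30 min with 10 μM compound. Aliquots were then heated for 3 min over 48°C-58°C and pooled, NP-40 was added to 0.5% at 4°C, and soluble protein was recovered as the supernatant at 21,000xg for 90 min. Channel-sum-equalised TMTpro 16plex LC-MS/MS quantified this protein. Each value, from duplicates, is a log-two fold change in thermal stability relative to solvent controls.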

Protein sequences, listed by entry. Tags and fused reporters are not part of them. Lines headed by an entry give the natural chain unless they say otherwise; changes in a name come on top.
UniProt O60333: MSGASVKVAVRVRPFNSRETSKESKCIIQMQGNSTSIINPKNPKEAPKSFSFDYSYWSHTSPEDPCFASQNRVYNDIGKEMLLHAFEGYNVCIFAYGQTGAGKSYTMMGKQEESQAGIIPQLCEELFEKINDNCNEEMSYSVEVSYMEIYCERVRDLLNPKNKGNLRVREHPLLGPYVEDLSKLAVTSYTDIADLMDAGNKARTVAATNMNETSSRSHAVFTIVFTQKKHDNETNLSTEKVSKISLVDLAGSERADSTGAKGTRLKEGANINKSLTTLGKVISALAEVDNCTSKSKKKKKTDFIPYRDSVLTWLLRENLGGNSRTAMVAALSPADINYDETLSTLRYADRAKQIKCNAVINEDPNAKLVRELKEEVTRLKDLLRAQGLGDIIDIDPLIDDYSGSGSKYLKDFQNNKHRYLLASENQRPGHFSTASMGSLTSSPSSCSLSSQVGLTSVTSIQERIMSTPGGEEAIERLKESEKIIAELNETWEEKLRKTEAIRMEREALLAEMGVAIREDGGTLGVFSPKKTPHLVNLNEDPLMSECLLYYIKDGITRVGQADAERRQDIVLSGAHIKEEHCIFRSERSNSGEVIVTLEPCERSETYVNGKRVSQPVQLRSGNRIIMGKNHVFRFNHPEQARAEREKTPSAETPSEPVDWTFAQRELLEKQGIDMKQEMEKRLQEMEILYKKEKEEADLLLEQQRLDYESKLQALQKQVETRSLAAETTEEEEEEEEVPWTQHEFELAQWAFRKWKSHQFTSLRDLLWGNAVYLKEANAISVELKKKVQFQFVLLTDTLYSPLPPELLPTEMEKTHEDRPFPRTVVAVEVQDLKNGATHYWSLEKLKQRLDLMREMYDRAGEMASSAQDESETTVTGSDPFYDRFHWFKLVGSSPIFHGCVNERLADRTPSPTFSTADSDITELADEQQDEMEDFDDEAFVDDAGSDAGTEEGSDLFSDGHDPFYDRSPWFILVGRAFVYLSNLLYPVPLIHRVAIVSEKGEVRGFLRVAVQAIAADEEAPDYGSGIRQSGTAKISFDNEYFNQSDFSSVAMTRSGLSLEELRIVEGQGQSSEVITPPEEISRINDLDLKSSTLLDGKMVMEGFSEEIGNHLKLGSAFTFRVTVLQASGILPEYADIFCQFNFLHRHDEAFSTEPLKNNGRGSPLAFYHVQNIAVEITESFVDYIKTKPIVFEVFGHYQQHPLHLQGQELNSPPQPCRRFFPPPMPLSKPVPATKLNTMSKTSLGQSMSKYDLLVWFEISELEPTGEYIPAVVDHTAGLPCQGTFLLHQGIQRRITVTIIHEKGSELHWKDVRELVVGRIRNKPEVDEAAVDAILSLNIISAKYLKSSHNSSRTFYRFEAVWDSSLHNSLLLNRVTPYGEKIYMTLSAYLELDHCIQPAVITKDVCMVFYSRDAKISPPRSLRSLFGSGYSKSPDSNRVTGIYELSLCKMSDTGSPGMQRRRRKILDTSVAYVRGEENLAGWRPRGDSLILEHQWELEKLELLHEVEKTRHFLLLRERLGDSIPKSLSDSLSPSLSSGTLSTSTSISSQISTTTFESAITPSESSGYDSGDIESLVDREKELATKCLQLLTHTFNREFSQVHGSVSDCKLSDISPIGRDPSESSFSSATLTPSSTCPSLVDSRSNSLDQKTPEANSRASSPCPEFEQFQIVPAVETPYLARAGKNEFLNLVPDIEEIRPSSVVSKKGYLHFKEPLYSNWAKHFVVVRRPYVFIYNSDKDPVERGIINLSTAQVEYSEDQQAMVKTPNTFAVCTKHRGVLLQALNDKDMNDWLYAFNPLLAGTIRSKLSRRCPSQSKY
UniProt Q14657: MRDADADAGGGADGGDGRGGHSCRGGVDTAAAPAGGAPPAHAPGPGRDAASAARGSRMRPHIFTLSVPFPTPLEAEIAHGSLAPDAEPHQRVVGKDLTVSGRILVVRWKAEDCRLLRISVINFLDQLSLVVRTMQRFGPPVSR
UniProt Q9Y496, whole entry, looked up: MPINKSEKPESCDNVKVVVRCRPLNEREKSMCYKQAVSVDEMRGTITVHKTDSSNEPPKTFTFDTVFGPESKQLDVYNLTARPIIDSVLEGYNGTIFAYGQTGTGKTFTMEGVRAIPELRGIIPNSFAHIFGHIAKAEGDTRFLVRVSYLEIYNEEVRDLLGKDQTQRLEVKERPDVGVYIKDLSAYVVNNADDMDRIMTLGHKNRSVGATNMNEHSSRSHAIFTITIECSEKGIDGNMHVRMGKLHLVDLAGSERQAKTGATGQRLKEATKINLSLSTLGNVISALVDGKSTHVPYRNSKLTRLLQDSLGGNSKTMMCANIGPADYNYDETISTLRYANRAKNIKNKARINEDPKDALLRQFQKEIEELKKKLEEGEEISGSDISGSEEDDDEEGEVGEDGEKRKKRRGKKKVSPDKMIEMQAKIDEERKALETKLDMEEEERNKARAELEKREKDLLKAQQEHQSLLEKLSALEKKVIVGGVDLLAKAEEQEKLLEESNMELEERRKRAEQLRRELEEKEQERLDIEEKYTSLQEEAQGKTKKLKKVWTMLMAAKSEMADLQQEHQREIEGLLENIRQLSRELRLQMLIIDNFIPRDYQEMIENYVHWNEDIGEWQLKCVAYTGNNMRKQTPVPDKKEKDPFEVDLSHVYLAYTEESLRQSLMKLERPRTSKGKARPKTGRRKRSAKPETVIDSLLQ
UniProt P13473: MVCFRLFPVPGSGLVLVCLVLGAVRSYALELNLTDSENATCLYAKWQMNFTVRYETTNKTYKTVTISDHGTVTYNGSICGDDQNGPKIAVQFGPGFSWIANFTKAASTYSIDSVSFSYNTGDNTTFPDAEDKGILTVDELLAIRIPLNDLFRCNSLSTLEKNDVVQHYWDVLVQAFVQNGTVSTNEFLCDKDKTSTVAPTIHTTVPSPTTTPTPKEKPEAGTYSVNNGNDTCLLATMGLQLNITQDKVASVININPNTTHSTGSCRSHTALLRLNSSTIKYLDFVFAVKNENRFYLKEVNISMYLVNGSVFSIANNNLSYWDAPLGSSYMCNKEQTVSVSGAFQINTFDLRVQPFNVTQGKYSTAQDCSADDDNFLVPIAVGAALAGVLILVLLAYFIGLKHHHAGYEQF
UniProt Q16719: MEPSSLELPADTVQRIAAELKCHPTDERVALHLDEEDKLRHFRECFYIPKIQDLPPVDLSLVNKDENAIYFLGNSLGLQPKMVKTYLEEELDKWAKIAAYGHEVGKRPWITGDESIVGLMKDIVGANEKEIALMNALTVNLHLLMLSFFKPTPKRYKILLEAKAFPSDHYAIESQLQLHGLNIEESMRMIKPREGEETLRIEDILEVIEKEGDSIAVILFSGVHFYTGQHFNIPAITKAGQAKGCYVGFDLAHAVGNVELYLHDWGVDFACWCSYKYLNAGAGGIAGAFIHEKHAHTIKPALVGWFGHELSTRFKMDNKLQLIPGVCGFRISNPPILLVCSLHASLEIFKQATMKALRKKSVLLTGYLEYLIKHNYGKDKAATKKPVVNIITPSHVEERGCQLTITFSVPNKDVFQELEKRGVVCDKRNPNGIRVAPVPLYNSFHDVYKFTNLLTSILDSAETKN
UniProt Q07666, whole entry, looked up: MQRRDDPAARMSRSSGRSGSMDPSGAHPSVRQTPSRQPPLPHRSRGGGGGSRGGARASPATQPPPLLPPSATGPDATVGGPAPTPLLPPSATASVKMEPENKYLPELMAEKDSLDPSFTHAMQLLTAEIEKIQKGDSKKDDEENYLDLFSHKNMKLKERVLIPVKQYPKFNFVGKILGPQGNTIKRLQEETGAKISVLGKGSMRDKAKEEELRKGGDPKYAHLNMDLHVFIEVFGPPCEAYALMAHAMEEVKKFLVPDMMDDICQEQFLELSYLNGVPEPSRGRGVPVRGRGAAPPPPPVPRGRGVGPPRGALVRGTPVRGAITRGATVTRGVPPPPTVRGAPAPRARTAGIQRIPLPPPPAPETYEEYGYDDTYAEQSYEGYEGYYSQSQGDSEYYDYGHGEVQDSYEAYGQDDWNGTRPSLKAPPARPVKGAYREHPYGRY
UniProt Q9NS87: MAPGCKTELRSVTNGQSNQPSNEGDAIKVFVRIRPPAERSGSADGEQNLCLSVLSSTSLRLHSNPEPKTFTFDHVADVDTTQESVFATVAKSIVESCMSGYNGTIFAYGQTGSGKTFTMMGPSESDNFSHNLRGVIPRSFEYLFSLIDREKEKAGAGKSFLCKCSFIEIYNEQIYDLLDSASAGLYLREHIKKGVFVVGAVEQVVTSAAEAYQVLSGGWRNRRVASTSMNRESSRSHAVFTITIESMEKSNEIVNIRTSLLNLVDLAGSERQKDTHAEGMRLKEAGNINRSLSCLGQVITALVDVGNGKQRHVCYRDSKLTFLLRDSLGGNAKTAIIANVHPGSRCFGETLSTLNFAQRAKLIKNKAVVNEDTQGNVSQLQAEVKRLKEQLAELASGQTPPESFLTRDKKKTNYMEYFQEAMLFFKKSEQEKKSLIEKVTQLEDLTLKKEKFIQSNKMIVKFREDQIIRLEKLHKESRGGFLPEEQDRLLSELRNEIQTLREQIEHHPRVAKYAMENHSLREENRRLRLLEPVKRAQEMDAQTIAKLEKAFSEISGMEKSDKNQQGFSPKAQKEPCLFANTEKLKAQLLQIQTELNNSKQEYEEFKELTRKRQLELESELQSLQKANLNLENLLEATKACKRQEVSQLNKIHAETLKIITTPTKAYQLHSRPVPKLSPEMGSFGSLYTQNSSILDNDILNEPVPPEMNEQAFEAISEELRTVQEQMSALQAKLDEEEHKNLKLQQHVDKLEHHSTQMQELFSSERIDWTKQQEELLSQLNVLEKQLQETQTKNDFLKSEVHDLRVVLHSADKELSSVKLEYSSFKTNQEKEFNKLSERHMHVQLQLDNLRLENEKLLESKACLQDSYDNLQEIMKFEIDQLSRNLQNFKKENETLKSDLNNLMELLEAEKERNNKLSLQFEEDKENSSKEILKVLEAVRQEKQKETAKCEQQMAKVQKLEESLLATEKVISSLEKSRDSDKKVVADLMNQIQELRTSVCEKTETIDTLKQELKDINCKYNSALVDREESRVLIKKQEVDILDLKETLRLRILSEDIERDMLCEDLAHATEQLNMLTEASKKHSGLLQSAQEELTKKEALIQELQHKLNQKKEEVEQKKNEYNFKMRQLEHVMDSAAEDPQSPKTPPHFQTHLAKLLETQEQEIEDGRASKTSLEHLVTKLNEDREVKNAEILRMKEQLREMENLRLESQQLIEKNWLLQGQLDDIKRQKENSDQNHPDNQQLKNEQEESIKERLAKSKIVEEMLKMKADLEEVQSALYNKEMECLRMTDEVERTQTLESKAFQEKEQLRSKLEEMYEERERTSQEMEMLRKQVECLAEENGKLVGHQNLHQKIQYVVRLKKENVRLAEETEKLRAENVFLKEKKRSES
UniProt Q6IAA8, whole entry, looked up: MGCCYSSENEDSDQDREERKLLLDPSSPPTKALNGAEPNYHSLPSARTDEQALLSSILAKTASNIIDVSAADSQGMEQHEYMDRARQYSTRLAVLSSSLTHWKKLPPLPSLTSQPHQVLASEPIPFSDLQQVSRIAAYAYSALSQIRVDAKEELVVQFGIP
UniProt Q6YP21: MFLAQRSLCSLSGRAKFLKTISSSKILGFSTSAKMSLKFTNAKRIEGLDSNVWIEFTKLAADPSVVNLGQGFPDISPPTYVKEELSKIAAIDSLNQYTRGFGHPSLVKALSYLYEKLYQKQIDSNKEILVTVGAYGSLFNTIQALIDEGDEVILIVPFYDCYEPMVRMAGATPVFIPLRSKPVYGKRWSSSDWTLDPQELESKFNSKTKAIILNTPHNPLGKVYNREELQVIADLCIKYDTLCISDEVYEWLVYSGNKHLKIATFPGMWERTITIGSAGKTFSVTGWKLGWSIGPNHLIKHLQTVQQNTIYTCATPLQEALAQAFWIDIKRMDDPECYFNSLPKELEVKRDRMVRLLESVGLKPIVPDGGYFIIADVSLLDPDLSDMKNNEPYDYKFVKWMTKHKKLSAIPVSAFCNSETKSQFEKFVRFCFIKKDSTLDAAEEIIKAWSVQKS
UniProt Q16773: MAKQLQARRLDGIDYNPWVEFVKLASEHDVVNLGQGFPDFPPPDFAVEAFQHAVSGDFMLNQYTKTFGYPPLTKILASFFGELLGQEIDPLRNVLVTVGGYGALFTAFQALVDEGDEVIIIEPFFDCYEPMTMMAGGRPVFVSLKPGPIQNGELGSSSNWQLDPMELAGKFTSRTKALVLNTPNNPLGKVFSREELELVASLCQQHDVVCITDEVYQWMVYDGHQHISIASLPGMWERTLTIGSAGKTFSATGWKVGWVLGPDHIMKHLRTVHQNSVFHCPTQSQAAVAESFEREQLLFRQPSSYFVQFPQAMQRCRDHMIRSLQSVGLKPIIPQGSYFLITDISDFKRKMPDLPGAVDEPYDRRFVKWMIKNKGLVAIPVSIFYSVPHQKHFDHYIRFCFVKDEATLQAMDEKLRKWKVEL

[2] = compound: CN1CCc2c(c3ccccc3n2Cc2ccc(C(=O)NO)cc2)C1 [Tubastatin A]
How it was run: as §1

[3] = compound: CNC(=O)C1=CC=CC=C1NC2=NC(=NC=C2Cl)NC3=C(C=C(C=C3)N4CCOCC4)OC
How it was run: as §1

[4] = compound: CNC(=O)c1ccc(Nc2ncc(C(F)(F)F)c(NCc3nccnc3N(C)S(C)(=O)=O)n2)cc1 [defactinib]
How it was run: as §1

[5] = compound: CNc1nc(-c2ccc3c(N)n[nH]c3c2)cc(N2C[C@@H](C(=O)NC3CCCCC3)CC[C@H]2C)n1
How it was run: as §1

[6] = compound: COC(=O)N[C@@H](C)CNc1nccc(-c2cn(C(C)C)nc2-c2cc(Cl)cc(NS(C)(=O)=O)c2F)n1 [encorafenib]
How it was run: as §1

[7] = compound: COC(=O)[C@H](CCSC)NC(=O)C1=C(C=C(C=C1)NC[C@H](CS)N)C2=CC=CC=C2
How it was run: as §1

[8] = compound: COc1cc(Nc2ncc3c(n2)-c2ccc(Cl)cc2C(c2c(F)cccc2OC)=NC3)ccc1C(=O)O [alisertib]
How it was run: as §1

[9] = compound: COc1cc2nc(-c3cc(F)ccc3O)nc(N[C@@H]3CNC[C@H]3C(C)(C)O)c2cc1OC
How it was run: as §1

[10] = compound: COc1cc2ncnc(Nc3ccc(F)c(Cl)c3)c2cc1OCCCN1CCOCC1 [gefitinib]
How it was run: as §1

Measured: log2 fold change

KIF4B (UniProt Q2VIQ3)
active: [2] -0.207
inactive: [1] -0.01 | [3] 0.024 | [4] 0.008 | [5] -0.039 | [6] 0.034 | [7] 0.146 | [8] -0.018 | [9] -0.006 | [10] -0.018

KIF5B (UniProt P33176)
inactive: [1] 0.014 | [2] -0.03 | [3] 0.002 | [4] 0.022 | [5] -0.009 | [6] -0.008 | [7] 0.054 | [8] -0.007 | [9] 0.008 | [10] 0.013

KIF21A isoform 5 (UniProt Q7Z4S6)
inactive: [1] 0.106 | [2] -0.066 | [3] 0.022 | [4] 0.007 | [5] 0.008 | [6] -0.016 | [7] 0.09 | [8] -0.033 | [9] -0.002 | [10] -0.012

KIF1B isoform 2 (UniProt O60333)
inactive: [1] 0.005 | [2] -0.034 | [3] 0.025 | [4] 0 | [5] 0.035 | [6] 0.003 | [7] 0.087 | [8] 0.018 | [9] -0.047 | [10] -0.021

LAGE3 (UniProt Q14657)
inactive: [1] -0.013 | [2] 0.004 | [3] -0.001 | [4] -0.194 | [5] -0.035 | [6] 0.047 | [7] -0.076 | [8] 0.224 | [9] -0.042 | [10] 0.107

LAMP1 (UniProt P11279)
inactive: [1] -0.242 | [2] 0.051 | [3] -0.013 | [4] -0.03 | [5] 0.059 | [6] 0.015 | [7] -0.047 | [8] 0.017 | [9] 0.028 | [10] 0.053

KLHL41 (UniProt O60662)
inactive: [1] -0.221 | [2] 0.044 | [3] 0.058 | [4] 0.15 | [5] 0.295 | [6] -0.05 | [7] -0.041 | [8] 0.193 | [9] -0.082 | [10] 0.163

KIF3A (UniProt Q9Y496)
inactive: [1] -0.087 | [2] 0.205 | [3] -0.017 | [4] -0.015 | [5] -0.025 | [6] 0 | [7] 0.05 | [8] 0.06 | [9] 0.072 | [10] -0.053

LAMP2 (UniProt P13473)
inactive: [1] -0.046 | [2] 0.041 | [3] 0.026 | [4] 0.04 | [5] -0.027 | [6] 0.036 | [7] -0.029 | [8] 0.012 | [9] -0.017 | [10] -0.001

KIAA0100 (UniProt Q14667)
inactive: [1] -0.033 | [2] 0.003 | [3] -0.01 | [4] -0.015 | [5] 0.328 | [6] 0.053 | [7] -0.107 | [8] 0.035 | [9] -0.007 | [10] -0.006

LARP1B, A0A3B3ISF0
inactive: [1] 0.007 | [2] -0.04 | [3] -0.048 | [4] -0.041 | [5] 0.021 | [6] 0.036 | [7] 0.136 | [8] 0.045 | [9] 0.029 | [10] 0.052

KYNU (UniProt Q16719)
inactive: [1] -0.051 | [2] 0.078 | [3] 0.021 | [4] 0.012 | [5] -0.01 | [6] 0.007 | [7] -0.029 | [8] -0.049 | [9] 0.001 | [10] 0.027

L1RE1 (UniProt Q9UN81)
inactive: [1] -0.028 | [2] 0.053 | [3] -0.015 | [4] 0.043 | [5] 0.007 | [6] 0.02 | [7] -0.03 | [8] 0.021 | [9] 0.007 | [10] 0.011

KIF13A isoform 4 (UniProt Q9H1H9)
inactive: [1] -0.014 | [2] 0.035 | [3] -0.018 | [4] 0.009 | [5] -0.034 | [6] 0.02 | [7] -0.013 | [8] -0.064 | [9] -0.003 | [10] -0.043

KHDRBS1 (UniProt Q07666)
inactive: [1] 0.039 | [2] -0.045 | [3] 0.017 | [4] -0.006 | [5] 0.007 | [6] 0.019 | [7] -0.139 | [8] -0.025 | [9] 0.011 | [10] -0.01

KIF15 (UniProt Q9NS87)
inactive: [1] -0.002 | [2] -0.058 | [3] 0.006 | [4] -0.011 | [5] 0.006 | [6] 0.01 | [7] 0.121 | [8] -0.013 | [9] -0.014 | [10] 0.003

KHDC4 (UniProt Q7Z7F0)
inactive: [1] -0.027 | [2] 0.069 | [3] 0.005 | [4] 0.007 | [5] -0.025 | [6] -0.011 | [7] -0.034 | [8] -0.002 | [9] 0.033 | [10] -0.015

LAMTOR1 (UniProt Q6IAA8)
inactive: [1] 0.052 | [2] 0.057 | [3] 0.062 | [4] 0.105 | [5] 0.048 | [6] 0.015 | [7] -0.018 | [8] -0.028 | [9] -0.036 | [10] -0.06

KYAT3 (UniProt Q6YP21)
inactive: [1] -0.051 | [2] 0.002 | [3] 0.004 | [4] 0.004 | [5] -0.061 | [6] -0.001 | [7] -0.073 | [8] -0.016 | [9] -0.001 | [10] 0.015

LARP4B (UniProt Q92615)
inactive: [1] 0.001 | [2] -0.118 | [3] 0.005 | [4] 0.023 | [5] -0.027 | [6] 0.024 | [7] 0.015 | [8] 0.025 | [9] -0.013 | [10] -0.006

KDM6A (UniProt O15550)
inactive: [1] -0.057 | [2] -0.057 | [3] 0.041 | [4] -0.048 | [5] 0.006 | [6] 0.054 | [7] 0.018 | [8] -0.025 | [9] -0.005 | [10] -0.011

KIF14 (UniProt Q15058)
inactive: [1] -0.031 | [2] -0.217 | [3] 0.032 | [4] 0.043 | [5] 0.011 | [6] 0.038 | [7] 0.045 | [8] -0.028 | [9] 0.013 | [10] 0.001

KRAS (UniProt P01116)
inactive: [1] -0.071 | [2] 0.059 | [3] -0.048 | [4] -0.01 | [5] -0.005 | [6] 0.01 | [7] 0.043 | [8] -0.016 | [9] -0.042 | [10] 0.139

LANCL1 (UniProt O43813)
inactive: [1] -0.029 | [2] 0.031 | [3] 0 | [4] -0.003 | [5] -0.067 | [6] -0.011 | [7] 0.016 | [8] 0.009 | [9] 0.006 | [10] -0.024

KYAT1 (UniProt Q16773)
inactive: [1] -0.021 | [2] 0.016 | [3] -0.019 | [4] -0.012 | [5] 0.016 | [6] 0 | [7] -0.027 | [8] -0.025 | [9] 0.004 | [10] 0.031

2 consecutive records already listed, quoted:
KDM6A (UniProt O15550)
inactive: [1] -0.057 | [2] -0.057 | [3] 0.041 | [4] -0.048 | [5] 0.006 | [6] 0.054 | [7] 0.018 | [8] -0.025 | [9] -0.005 | [10] -0.011

KIF14 (UniProt Q15058)
inactive: [1] -0.031 | [2] -0.217 | [3] 0.032 | [4] 0.043 | [5] 0.011 | [6] 0.038 | [7] 0.045 | [8] -0.028 | [9] 0.013 | [10] 0.001

Later entries:

LAMTOR4 (UniProt Q0VGL1)
inactive: [1] 0 | [2] 0.081 | [3] -0.009 | [4] 0.001 | [5] 0.041 | [6] 0.035 | [7] -0.029 | [8] 0.066 | [9] 0.014 | [10] 0.013
